{"source": "paper PMC12423496", "biological_target": "T1, sHdrR-trunc (Hyphomicrobium denitrificans XT) (UniProt D8JT17)", "T1 sequence (looked up)": "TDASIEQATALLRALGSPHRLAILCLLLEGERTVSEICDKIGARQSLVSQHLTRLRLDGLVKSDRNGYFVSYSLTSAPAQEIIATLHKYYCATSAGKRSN", "experiment": "EMSA", "settings": "100 and 400 nM protein, 17 nM DNA, 1 mM DTT, 10 mM Tris-HCl, 50 mM KCl, pH 8.0 (1x of 10x buffer), about 7% glycerol, 20 min RT then 30 min at 30 C with 17 nM DNA, 6% native PAGE, 0.25x TBE, 4 C, recombinant protein, residues 26-125, label: none (SYBR Green I stain), probe letters rebuilt from the primers and the genome", "note": "Protein sequences can lack the tags named with them."}
{"sequence": "TTCCCGCCCCGTCTTGGTTTTTGTTTTACTTGCCTACCGAATACGTTTTGCAGCGAAGCGCCCTTGAGGGCGCTCGATCTCTTCCGGTGAGGGTTCGTGTCGATTGTTCAGCGCTCGCCTGGAAGTCGGCGCCAGCTATTAGATATGAATATTCCTATATTCAAATATAAATCGCAACGGAAGCGCATCGTCAAGGCCGTGCTCCGTGGTGCGCTACGCATCACCGCGTACGTTTGAGAACACAGCTTTGCCCGAAAATATATAAAGATATGAATATGTTGATGCTTAGATTTGAGTTGCAAGCTCTCTGCTGCATCGGTAGGTGATTAGCGAATATTCACGCTTTTTTGGATGCAACTCCT (double strand) [soxT1A-shdrR intergenic region]", "values": [{"measurement": "binding result", "result": "binds"}]}
